Measurements taken from paper doi:10.1101/2024.06.03.596644.
Where a chain is given by its changes, count along the chain named. These are yes or no findings as the source states them, for the method shown. Binding calls can cover weak binding; strength is not graded here. Where a sequence is shown, tags or fusion partners need not be part of it.

Experiments:
[1] = target: T1, His-WT-FBXO31 (UniProt Q5XUX0); assay: pull-down
T1 sequence: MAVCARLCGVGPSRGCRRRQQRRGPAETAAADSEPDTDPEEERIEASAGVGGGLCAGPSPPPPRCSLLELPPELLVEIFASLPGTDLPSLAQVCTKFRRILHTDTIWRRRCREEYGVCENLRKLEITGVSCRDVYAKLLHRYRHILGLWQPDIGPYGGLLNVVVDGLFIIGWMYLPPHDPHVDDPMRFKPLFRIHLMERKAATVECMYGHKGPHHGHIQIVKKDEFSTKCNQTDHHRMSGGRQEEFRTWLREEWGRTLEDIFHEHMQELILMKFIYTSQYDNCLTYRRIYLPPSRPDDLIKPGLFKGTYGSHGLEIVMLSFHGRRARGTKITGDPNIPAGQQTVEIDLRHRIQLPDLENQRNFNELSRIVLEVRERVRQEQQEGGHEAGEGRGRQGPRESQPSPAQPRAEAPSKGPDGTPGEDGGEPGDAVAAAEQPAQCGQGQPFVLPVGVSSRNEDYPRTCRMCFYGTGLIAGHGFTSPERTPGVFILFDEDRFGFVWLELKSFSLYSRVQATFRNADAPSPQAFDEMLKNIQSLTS

[2] = target: T2, His-FBXO31(S278D) (UniProt Q5XUX0); assay: pull-down
T2 sequence: T1 sequence with S278D

## GST-H2AX(S139D)
[1]
  binding: binds
[2]
  binding: binds
